Results on 104 sequences are retold here after PubChem BioAssay AID1347423 (Functional Genomics Laboratory (NCATS/FGL), 2020).

The whole screen tested about 52,000 sequences, of which about 210 (0.4%) were called active.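 The calls were made as follows: active = gene whose silencing raises cell survival under the drug, median off-target-corrected z-score across its silencing RNAs 2 or more; inactive = the rest.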 The list shows a part of the results.

The experiment in a line: Resistance to Poly (ADP-Ribose) Polymerase inhibitor: Gene Identification via Genome-wide siRNA Screen. Particulars: mouse BRCA2 R2336H ES cells, olaparib, CellTiter-Glo viability; hits give high values. The method, boiled down:
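Mouse BRCA2 R2336H ES cells were reverse-transfected with siRNA (20 nM final), treated at 48 h with 500 nM olaparib, and read by CellTiter-Glo after 72 h. Scores: MAD-based z per siRNA, median per gene, seed off-target correction.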
With GCGCAAGUCUCCAUUUGCATT against BC021438, the z-score is inactive: 0.258. Under CUAAAUGCCUCCUACCUUUTT against LOC435285 stands inactive: -1.46.

For the sequence CCCAGUAAAUAAGAGUACATT against Treml1, the z-score is inactive: -0.647. Take GGGUAGAUAACAUCUGGACTT against Dgat2: the z-score was inactive: 0.546. For GGACAUGGUCCUUCCUAAATT against Arl10c the value was inactive: 0.091; for CCUAUGAUUCAGUGUAUCUTT against Hdac6, inactive: -0.362; for “GGUCGCUGGAGACCUUAGUTT against 6430706D22Rik”, inactive: -0.229. Under GGUUUCUGGCUUUCCGUAGTT against Erf stands inactive: -1.44; under CGACCUGGAUAGGUUGUUUTT against Ckap4, inactive: 1.42; under “GGAGCUAAAAGAGUGCUCCTT against D14Ertd231e”, inactive: 0.269.

In the case of GGCCUGAGACUCUCACAGATT against Taf5l, the z-score is inactive: -1.1. For CCGGUUUUAUGCAGUGUGUTT against Taar3 the value was inactive: -0.457. With GGCAUUGUGAAGCUGAAACTT against Ptpn9, the z-score was active: 1.93.

As for GGCUUUUGAGCUGAUCUUGTT against Stmn2, the z-score was inactive: -0.0751. Under GGGUUUGUAAUAAUGCUUGTT against Cklfsf6 stands inactive: -0.245. For GCUUUUAACAUCGAGUAAUTT against Top2b the value was inactive: -1.35.

Regarding GCAUCUACCUUCUAUUACUTT against Gpsm1, the z-score is inactive: -0.421. For GCAUGCUAGAUGUGGUCUGTT against BC018601 the value was inactive: -2.63; for “GGCUCCUCUUUUAUCUACATT against 0610007P14Rik”, inactive: -1.2; for “CCGCAGUUGUCUUUCAAGATT against B930007L02Rik”, inactive: -0.909. Under GGGCACAAGAUCUAUAUAUTT against Anpep stands inactive: 0.593; under GCUAUGAAACAUGCCGGAGTT against Mrps21, inactive: 0.368; under GGCUGAAGAGAUUGUCAAUTT against Aars, inactive: -1.53.

As to “GGAGUGUUUCUACCAGCCCTT against 4432412D15Rik”, the z-score was inactive: 0.0825. Consider GGACUACCGAGGUUUAACCTT against Snx22, for which the z-score was inactive: 1.01. Regarding GCCAUUUUUGAUGGUAUACTT against Atp6v1a1, the z-score is inactive: -0.938. In the case of GGUCAUCAUGUCUCAUCAGTT against Olfr983, the z-score was inactive: 0.865. For GGGAUUUCACUUCUUAUCATT against Olfr781 the value was inactive: 0.0503; for GCCACGAACAUGAUGUACATT against Slco3a1, inactive: -1.83; for GCCCGGUUUGAAGAACAUATT against Ndufb9, inactive: 1.18.

With CCCGAGAUACAAAAUCAUUTT against Dscr1l2, the z-score is inactive: 1.4. Under “CCUCUAUCUAACCUUUUCUTT against 1810037I17Rik” stands inactive: 0.178; under “CCAUCUCAGGUGCAAUUUGTT against 4921506M07Rik”, inactive: 1.79; under GGACCUCAGAAUUUAUACUTT against Atf5, inactive: 0.81. For CCAAUCAUUGAAGAUAGAGTT against Olfr811 the value was inactive: -0.224; for “CCGUGGCAACUGGUAUUAUTT against 9830002I17Rik”, inactive: 1.38. In the case of GCACGUGGGCUAUUCCUACTT against Gria1, the z-score was active: 2.78. With GGAAGAACAUUGUUACCUGTT against Polydom, the z-score is inactive: -0.0789. For GGCCUAUUAUACAGUGUAUTT against Anxa3 the value was inactive: 0.315; for “GGCAGUGACACAGAAAUGATT against D130072O21Rik”, inactive: -0.738. In the case of GGGAGACAAACUGAUCUCUTT against Olfr324, the z-score was inactive: -0.0366. For the sequence GGAAGUCUGUCCAAAGCAUTT against Olfr190, the z-score is inactive: -0.308. For the sequence GGGAGAAGAAGAUACACCATT against Usp47, the z-score was active: 2.16. As to GGAAAAAAUCUGCAUCCGATT against Neu1, the z-score is inactive: 1.62. For GGUAUGAUGCCUAUUUAUUTT against Cln8 the value was inactive: 0.667; for CGACUACCAGAGUCAUUCGTT against Lyzl6, inactive: -0.526; for CCCAAAACCCUGCUAUUCATT against Synj2bp, inactive: -2.45. As to CGACUUGUAUCGUAUGGCUTT against Grm7, the z-score is inactive: -0.92. Under CCCAGGACUCAUGAUUACATT against Tas2r134 stands inactive: -1; under GGUCAUCUAUCGUGUGCUGTT against Lamb2, inactive: 1.09; under GCUUACAUUAAAGGAUAUGTT against Rab5c, inactive: 0.445.

Take “CCUACACCCAAUUAAGAGUTT against F830005K03Rik”: the z-score was inactive: -0.0606. In the case of GCACACCUUUAAUAGCUAATT against Gcm1, the z-score was inactive: -1.46.

Consider “GCUGGAUUAUUUGAGAGUCTT against 6330414G21Rik”, for which the z-score is inactive: -0.00472. Under “CCUAGCUGUUAGGAAGCAATT against 6030410K14” stands inactive: -0.574. As to GGAAUGUUUUCAUGACUGUTT against Ttc1, the z-score is inactive: -0.941.

For GGCCGUAUAACAGGACUUUTT against Cltb, the z-score was inactive: 0.652. For “GGAAAAAAGGAAUUGACUUTT against 1200007O21Rik” the value was inactive: 1.09. Under CCCACCCAUCUAAUUUUUGTT against Gm266 stands inactive: 0.666; under GCAUUCACCGUACGUAUUCTT against Idb4, inactive: 0.66; under “GGGCACAGGAUGAAAUGCATT against 4930511H11Rik”, inactive: 0.355. Turning to GCUGGUGCUGUGCAUCUUUTT against Aqp2, the z-score is inactive: -0.287. For GCAGAUUAGAAGCUAGUAUTT against Rab27b the value was inactive: 0.504.

Regarding CGCUUAGCAAUAUCAUCGATT against Asna1, the z-score was inactive: 0.831. For GGUCAUUGUUUAUGUCACATT against Sorcs3 the value was inactive: -1.4; for GGAGGUUUUCAUGGUUAUCTT against Nrgn, inactive: 1.3. As for GGUUCAAUGCUCCCUUCGATT against Ghrl, the z-score is inactive: -2.65. For the sequence GGGAAGACACUGGCUUCAGTT against Lepr, the z-score was inactive: 0.477. For GGAAAUCAAUGCAUUGUCCTT against Fbn2 the value was inactive: -0.0373. For GCCAUAUUUACUAAGCAGATT against Plcl2 the value was inactive: 0.676. In the case of GGCAGCUAGAAAUUCACUCTT against Sntb1, the z-score was inactive: -1.09. Consider GCGCAUCAUCGAUUCUGCCTT against Sfn, for which the z-score was inactive: -0.292. For “GGCUUUGGAAUAUACCGAGTT against 1600012K10Rik”, the z-score was inactive: -0.843.

For GGUGAACUCUUCACAUUUGTT against Fcer1a, the z-score was inactive: 0.82. Regarding GCAAAACUGAACAAAGUACTT against Cmya3, the z-score is inactive: -0.714. Under GCAAAAUAACUGGGACUUGTT against Faf1 stands inactive: 0.731; under “GGAGAGCUGAAAGAUUUAATT against D630005C06Rik”, inactive: 0.472. For GGAUCCUUACAAUAACAUUTT against Mut, the z-score was inactive: 1.26. For GAAGUCGGUGGACAAGAACTT against Cebpa the value was inactive: 0.628; for CCAAAAAUGCAACCCUCACTT against Tde2l, inactive: 0.0333; for GCCCUAUUCCCAACUAUUCTT against Nefl, inactive: 0.169. For CCUCCACCUAGAAUGUGACTT against Ghrhr the value was inactive: -0.404; for GCCACUUCCUGGAUAAGGATT against Ftl2, inactive: -1.24. On to GGUUUCUUUUAAGCAUCAUTT against Olfr862, for which the z-score was inactive: -0.101. GGGUGAAUCAUUCUGUGACTT against Olfr1313: the z-score is inactive: -0.574. As to GGGCAUCUUCUACCUGACCTT against Zdhhc9, the z-score is inactive: 1.59.

“GGUGAAAAACCCUAUAGUUTT against A230042K10Rik”: the z-score was inactive: 0.874. Take “GGGCCUGUAAUGGUGUACATT against B230317F23Rik”: the z-score was inactive: -0.882.

Take “GGGUGAGUUGUUAAAUCCUTT against 9630025C22”: the z-score is inactive: 1.35.

In the case of GUCAAAGAGUUUCAGCAUCTT against Foxl1, the z-score is inactive: 0.938.

For GGCAGCAAGUUUUUUAAUCTT against Cap1, the z-score was inactive: 0.782. For GGCAAUUGAUAUGGUUCAGTT against Magea9 the value was inactive: -0.346; for “GGAAAGCCACUGUGUAAAATT against 4930438O05Rik”, inactive: 0.0884; for GGUUCAAUAAAAAUGCUUCTT against Ngp, inactive: 1.16. Under GGAAAAUUGGCCAAAAUAATT against Pdcl stands inactive: 0.579; under GCUAUAUCGCUAUGGACACTT against Cnot8, inactive: -1.04; under GGUAUUACAAGGUCAUAUCTT against C78541, inactive: -0.233. Under GCAUCUUUGUGAAUGUUUATT against Slc7a3 stands inactive: -0.938. As for “CCACAAUAGCUCGAACCAUTT against A730011L01Rik”, the z-score was inactive: -2.03. For “GGAGGCAAAAUCUUUUGUATT against 1700024D23Rik” the value was inactive: -0.912; for CGCAAGAUCCUCAAACGAGTT against Proc, inactive: 2.34. Under “GGCUCAGAUACUCUUAUAATT against 4921525H12” stands inactive: -1.88; under GCCAGUCUUAAAUGAUCAATT against Evi2b, inactive: -0.912; under GCAUUUUAUGCACUCUGUCTT against Camk4, inactive: -0.295.
